Among the data in article PMC11360871 are binding values, retold here.

Chains of the proteins cited; added tags and fusions are not shown.
UniProt Q04207: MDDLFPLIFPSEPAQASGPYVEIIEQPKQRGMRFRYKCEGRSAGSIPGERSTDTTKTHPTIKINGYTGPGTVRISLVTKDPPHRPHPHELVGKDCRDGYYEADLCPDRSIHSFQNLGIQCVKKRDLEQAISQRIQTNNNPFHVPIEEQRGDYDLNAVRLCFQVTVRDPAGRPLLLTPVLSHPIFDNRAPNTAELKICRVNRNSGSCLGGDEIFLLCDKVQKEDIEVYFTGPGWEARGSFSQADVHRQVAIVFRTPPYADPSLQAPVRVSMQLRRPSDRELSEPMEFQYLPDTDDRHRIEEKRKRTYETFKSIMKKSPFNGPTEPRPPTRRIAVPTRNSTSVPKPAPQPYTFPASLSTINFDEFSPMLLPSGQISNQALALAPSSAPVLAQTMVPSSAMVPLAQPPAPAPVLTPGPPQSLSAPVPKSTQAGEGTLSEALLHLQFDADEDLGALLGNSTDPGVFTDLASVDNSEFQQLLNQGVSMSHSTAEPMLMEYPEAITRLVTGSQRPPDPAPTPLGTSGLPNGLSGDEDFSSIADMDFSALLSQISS

Results are given in words; binding and its absence hold for the method and conditions named. In cells and extracts the contact can be indirect. Some entries that bind do so weakly or less than the wild type.

Test [1] addresses T1, Nuclear factor (erythroid-derived 2)-like 1 (Nrf1) (mouse (endogenous in mouse brain tissue and mouse primary microglia)) (UniProt Q9WU00).
T1 sequence: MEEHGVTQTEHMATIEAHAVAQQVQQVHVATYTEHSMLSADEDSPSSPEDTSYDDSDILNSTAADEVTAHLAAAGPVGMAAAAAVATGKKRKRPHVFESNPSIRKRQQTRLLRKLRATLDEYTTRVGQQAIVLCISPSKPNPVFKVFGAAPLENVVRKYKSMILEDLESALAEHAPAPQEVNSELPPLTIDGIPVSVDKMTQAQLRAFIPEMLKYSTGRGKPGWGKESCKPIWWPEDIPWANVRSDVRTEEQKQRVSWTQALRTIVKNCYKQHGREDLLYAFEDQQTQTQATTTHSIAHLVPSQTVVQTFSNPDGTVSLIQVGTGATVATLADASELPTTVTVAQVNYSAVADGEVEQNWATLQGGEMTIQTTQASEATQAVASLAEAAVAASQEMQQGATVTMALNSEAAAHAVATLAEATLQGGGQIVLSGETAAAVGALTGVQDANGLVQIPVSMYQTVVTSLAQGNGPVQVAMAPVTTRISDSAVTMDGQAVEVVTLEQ
Description: co-IP; anti-Nrf1 antibody (Abcam) on protein A + G magnetic beads, IgG as negative control, overnight at 4 °C, western blot; cell nuclei of mouse primary microglia after OGD/R, treated with vehicle, PTS or ITSA1 + PTS for 24 h. Background: In western blotting, separated proteins are transferred to a membrane and probed.

Test [2] addresses T1, Nuclear factor (erythroid-derived 2)-like 1 (Nrf1) (mouse (endogenous in mouse brain tissue and mouse primary microglia)). The test is described as follows: co-IP; anti-Nrf1 antibody (Abcam) on protein A + G magnetic beads, IgG as negative control, overnight at 4 °C, western blot; cell nucleus of ischaemic brain tissue of mice 24 h after MCAO/R; mice treated with vehicle, PTS, ITSA1, RGFP966 or PTS + ITSA1.

NF-κB p65 (from UniProt Q04207 1-549): the binding entry in test [1] and in test [2] was “binds” in each case.
